One test addresses GST-Runx2 (UniProt Q08775). The test is described as follows: pull-down; Glutathione-Sepharose beads carrying GST, GST-Runx2 or GST-CypE incubated with whole-cell lysate of transfected HEK 293 cells at 4 °C overnight; washed with 20 mM HEPES pH 7.4, 120 mM NaCl, 10% glycerol, 2 mM EDTA; immunoblot; only the target purified. On the technique in general: A western blot detects proteins with antibodies after separation by electrophoresis.

Protein sequences, listed by entry. Tags and fused reporters are not part of them. Lines headed by an entry give the natural chain unless they say otherwise; changes in a name come on top. Chains listed by the source or under a name are the forms on record and can include a tag or linker.
UniProt Q08775: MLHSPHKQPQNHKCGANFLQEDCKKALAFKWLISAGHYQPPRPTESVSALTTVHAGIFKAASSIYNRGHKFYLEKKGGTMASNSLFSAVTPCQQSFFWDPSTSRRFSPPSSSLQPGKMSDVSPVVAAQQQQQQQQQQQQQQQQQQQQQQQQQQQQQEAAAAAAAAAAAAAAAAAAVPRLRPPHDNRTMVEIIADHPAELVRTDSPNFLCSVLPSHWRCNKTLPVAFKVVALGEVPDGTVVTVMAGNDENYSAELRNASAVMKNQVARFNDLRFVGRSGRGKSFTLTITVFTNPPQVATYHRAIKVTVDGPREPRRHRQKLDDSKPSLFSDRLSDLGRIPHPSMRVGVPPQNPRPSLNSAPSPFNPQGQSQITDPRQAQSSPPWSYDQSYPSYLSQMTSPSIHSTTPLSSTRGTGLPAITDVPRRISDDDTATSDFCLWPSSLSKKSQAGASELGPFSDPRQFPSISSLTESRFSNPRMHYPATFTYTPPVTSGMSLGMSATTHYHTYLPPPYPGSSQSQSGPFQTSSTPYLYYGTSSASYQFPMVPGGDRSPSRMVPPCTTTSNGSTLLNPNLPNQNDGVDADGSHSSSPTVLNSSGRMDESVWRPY
GST-CypE (Q9UNP9-3, form named): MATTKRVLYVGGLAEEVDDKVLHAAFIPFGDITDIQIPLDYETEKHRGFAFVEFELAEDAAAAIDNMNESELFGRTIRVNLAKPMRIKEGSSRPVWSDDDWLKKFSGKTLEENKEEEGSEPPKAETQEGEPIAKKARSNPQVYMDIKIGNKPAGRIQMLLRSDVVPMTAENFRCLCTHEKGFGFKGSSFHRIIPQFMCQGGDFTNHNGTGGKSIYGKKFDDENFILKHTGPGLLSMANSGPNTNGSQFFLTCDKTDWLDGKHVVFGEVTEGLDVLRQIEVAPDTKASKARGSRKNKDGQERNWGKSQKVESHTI
Myc-CypE 137–314 (Q9UNP9-3, form named): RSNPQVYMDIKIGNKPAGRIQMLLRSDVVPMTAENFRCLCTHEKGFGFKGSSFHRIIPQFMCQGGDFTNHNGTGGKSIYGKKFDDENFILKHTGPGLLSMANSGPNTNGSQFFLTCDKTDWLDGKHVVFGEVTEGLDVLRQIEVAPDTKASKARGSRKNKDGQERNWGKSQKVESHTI

Test [1] deals with HA-tagged full-length Cyclophilin E (CypE, amino acids 1–314) (UniProt Q9UNP9). Put plainly: co-IP; HEK 293 cells co-transfected for 48 h; whole-cell lysate (25 mM HEPES pH 7.4, 150 mM NaCl, 1% NP-40, 0.25% Na-Doc) incubated with HA or Myc antibody overnight, Protein A Sepharose CL-4B 1 h at 4 °C; immunoblot.
The target in another test is GST-CypE (UniProt Q9UNP9). The test is described as follows: pull-down; Glutathione-Sepharose beads carrying GST, GST-Runx2 or GST-CypE incubated with whole-cell lysate of transfected HEK 293 cells at 4 °C overnight; washed with 20 mM HEPES pH 7.4, 120 mM NaCl, 10% glycerol, 2 mM EDTA; immunoblot; only the target purified.

These are yes or no findings as the source states them, for the method shown. Binding seen in cells or lysates may run through a third protein. Some binding calls cover weakened binding; strength is not graded here.

Consider “HA-tagged full-length Cyclophilin E (CypE, amino acids 1–314) (from UniProt Q9UNP9-3 1-314)”, for which the binding result with GST-Runx2 is listed as “binds”.
For “Myc-CypE 137–314 (from UniProt Q9UNP9-3 137-314) (domain or fragment)”, the binding entry with GST-Runx2 is “binds”.
Same read-out and setting: the entry for Myc-CypE (from UniProt Q9UNP9-3 1-314) is “binds”.
Regarding “Myc-Runx2 Runt homology domain (R) (from UniProt Q08775 187-315) (domain or fragment)”, the binding result (in test [1]; with GST-CypE) was “binds” in each case.
Take “Myc-tagged Runx2 (full length) (from UniProt Q08775 1-607)”: the binding entry (in test [1]; with GST-CypE) was “binds” in each case.
